# Measured values published in US11253594B2, “Drug combinations for protecting against neuronal cell death” (UNIVERSITY OF PITTSBURGH-OF THE COMMONWEALTH SYSTEM OF …, priority 2017, dated 2022).
# Some results were stated once for a whole list of compounds, not compound by compound.
# Test system: cAMP levels in STHdh^Q111 cells
# Experiment: cAMP Enzyme Immunoassay
# Conditions: 15 minutes after compound treatment in the presence of serum
compound,measurement,value
O=c1[nH]c2ccccc2n1CCCN1CCC(n2c(=O)[nH]c3cc(Cl)ccc32)CC1 [Domperidone],increase in cAMP over the DMSO control,≥ 2 fold
